Measurements as given in the supplement of paper PMC7024190.
Where a name gives a salt, the structure may show the parent alone. The list shows a part of the results. This data set is noisy: repeats of one test often differ as much as different tests do.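 The cells were human embryonic kidney cells carrying a Renilla luciferase gene, driven by the HSV-TK promoter, on a plasmid put in briefly by transfection. This is the first-round screen of about ten thousand compounds, looking for ones that raise reporter output.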

test system: HEK 293FT; experiment: log relative Renilla luciferase luminescence (reporter expression vs reference, reference not stated) (log (base not stated)); higher = higher recombinant reporter expression; conditions: 10 µM; time after transfection 48 h

Row | Structure (SMILES) | log
1 | Nc1ccncc1 [fampridine] | 0.0818
2 | CN(C)Cc1c[nH]c2ccccc12 [gramine] | 0.00491
3 | COc1cc([C@@H]2c3cc4c(cc3[C@H](OC(C)=O)[C@H]3COC(=O)[C@H]23)OCO4)cc(OC)c1OC [podophyllin acetate] | -0.0429
4 | O=C(O[C@H]1C[C@H]2CC[C@@H](C1)[N+]21CCCC1)C(O)(c1ccccc1)c1ccccc1 [trospium chloride] | 0.198
5 | COc1ccc(C(=O)N2CCCC2=O)cc1 [aniracetam] | 0.0633
6 | O=C(O)CCCc1ccc(N(CCCl)CCCl)cc1 [chlorambucil] | -0.232
7 | CC[C@@]1(O)C[C@H](O)c2c(cc3c(c2O)C(=O)c2c(O)ccc(O)c2C3=O)[C@H]1C(=O)OC [rutilantinone] | -0.0376
8 | COC(=O)[C@@H]1C[C@H](OC(C)=O)C(=O)[C@H]2[C@@]1(C)CC[C@H]1C(=O)O[C@H](c3ccoc3)C[C@]21C [salvinorin a] | 0.00551
9 | O=C1C=C2C=C[C@@H]3C[C@@]2(O1)[C@H]1CCCCN31 [securinine] | -1.05
10 | Oc1noc2c1CCNC2 [gaboxadol hydrochloride] | 0.101
11 | COc1cc([C@@H]2c3cc4c(cc3[C@H](O)[C@H]3COC(=O)[C@@H]23)OCO4)cc(OC)c1OC [picropodophyllin] | -0.19
12 | CCCC(C)C1(CC)C(=O)NC(=S)NC1=O (configuration not stated) [thiopental sodium] | 0.132
13 | CC(C)=CC1C(C(=O)OCc2cccc(Oc3ccccc3)c2)C1(C)C (configuration not stated) [phenothrin] | -0.0194
14 | CC1(C)C(=O)C=C[C@]2(C)[C@H]3CC[C@@]4(C)[C@H](c5ccoc5)OC(=O)[C@H]5O[C@]54[C@]3(C)[C@H](O)C[C@@H]12 [deacetylgedunin] | -0.107
15 | C[CH2][Hg][S]c1ccccc1C(=O)[O-].[Na+] [thimerosal] | -1.99
16 | NC(=O)C[S@@+]([O-])C(c1ccccc1)c1ccccc1 [armodafinil] | -0.12
17 | CC(C)=CCC[C@]1(C)C=Cc2c(O)c3c(c(CC=C(C)C)c2O1)O[C@]12C(=C[C@@H]4C[C@H]1C(C)(C)O[C@@]2(C/C=C(/C)C(=O)O)C4=O)C3=O [gambogic acid] | -1.27
18 | NCCc1cc(O)c(O)cc1O [oxidopamine hydrochloride] | 0.0787
19 | N#Cc1nn(-c2c(Cl)cc(C(F)(F)F)cc2Cl)c(N)c1[S+]([O-])C(F)(F)F (configuration not stated) [fipronil] | 0.133
20 | O=C1C[C@@H]2OCC=C3CN4CC[C@]56c7ccccc7N1[C@H]5[C@H]2[C@H]3C[C@H]46 [strychnine] | 0.193
21 | CC[C@@]1(O)C(=O)OCc2c1cc1n(c2=O)Cc2cc3ccccc3nc2-1 [camptothecin] | -0.782
22 | CC(CCc1ccccc1)NC(C)C(O)c1ccc(O)cc1 (configuration not stated) [nylidrin hydrochloride] | -0.0134
23 | COc1cccc(C2(O)CCCCC2CN(C)C)c1 (configuration not stated) [tramadol hydrochloride] | 0.129

Row | Structure (SMILES) | log
24 | CC(=O)OC1CN2CCC1CC2 (configuration not stated) [aceclidine] | -0.0325
25 | C[N+](C)(C)CCCCCCCCCC[N+](C)(C)C [decamethonium bromide] | -0.207
26 | c1ccc2nc(N3CCNCC3)ccc2c1 [quipazine maleate] | 0.138
27 | Cc1cc(OC(=O)N2CCCCC2)c(C(C)C)cc1[N+](C)(C)C | 0.0556
28 | C=C(C)c1cc2cc(C(C)=O)c(O)cc2o1 [euparin] | 0.0192
29 | CN1C[C@H](C(=O)N[C@]2(C)O[C@@]3(O)[C@@H]4CCCN4C(=O)[C@H](Cc4ccccc4)N3C2=O)C[C@@H]2c3cccc4[nH]cc(c34)C[C@H]21 [dihydroergotamine mesylate] | -0.141
30 | C[N+]1(C)[C@@H]2CC[C@H]1C[C@@H](OC(=O)C(CO)c1ccccc1)C2 (some centres not stated) [methylatropine nitrate] | -0.279
31 | Oc1cccc2cccnc12 [oxyquinoline sulfate] | 0.0663
32 | CC(C)(O)C(Cl)(Cl)Cl [chlorobutanol] | 0.117
33 | CC1=C(O)C(=O)C=C2C1=CC=C1[C@@]2(C)CC[C@@]2(C)[C@@H]3C[C@](C)(C(=O)O)CC[C@]3(C)CC[C@]12C [celastrol] | -2.15
34 | CC(=O)Oc1ccc(/C=C/c2cc(OC(C)=O)cc(OC(C)=O)c2)cc1 [triacetylresveratrol] | -0.0675
35 | N#C/C(=C\c1ccc(O)cc1)C(=O)O [alpha-cyano-4-hydroxycinnamic acid] | 0.0319
36 | CCCN1C[C@H](CSC)C[C@@H]2c3cccc4[nH]cc(c34)C[C@H]21 [pergolide mesylate] | -0.0596
37 | N.N.[Cl][Pt][Cl] [cisplatin] | 0.0757
38 | CCCCCCCCCc1ccc(O)cc1 [4-nonylphenol] | 0.0818
39 | COc1ccc2[nH]cc(CCN)c2c1 [mexamine] | -0.0885
40 | CNc1ccc(C(=O)CC(O)CCC(C)C2OC(=O)CC(O)CC(=O)CC(O)CC(O)CC(O)CC(O)CC3(O)CC(O)C(C(=O)OC)C(CC(O[C@@H]4O[C@H](C)[C@@H](O)[C@H](N)[C@@H]4O)/C=C/C=C/C=C/C=C/C=C/C=C/C=C/C2C)O3)cc1.COC(=O)C1C(O)CC2(O)CC(O)CC(O)CC(O)CC(O)CC(=O)CC(O)CC(=O)OC(C(C)CCC(O)CC(=O)c3ccc(N)cc3)C(C)/C=C/C=C/C=C/C=C/C=C/C=C/C=C/C(O[C@@H]3O[C@H](C)[C@@H](O)[C@H](N)[C@@H]3O)CC1O2 (some centres not stated) [mepartricin] | -0.522
41 | Cc1ncc(CNC(=O)N(CCCl)N=O)c(N)n1 [nimustine] | 0.0166
42 | COC(=O)[C@]1(C)CC[C@]2(C)CC[C@]3(C)C4=CC=C5C(=CC(=O)C(O)=C5C)[C@]4(C)CC[C@@]3(C)[C@@H]2C1 [pristimerin] | -1
43 | CN1CCCCC1c1ccc(-c2cccnc2)nc1 (configuration not stated) [anabasamine hydrochloride] | -0.0383
44 | Cc1cc(O)ccc1Cl [chlorocresol] | 0.054
45 | C=C(C)[C@H]1CN[C@H](C(=O)O)[C@H]1CC(=O)O [kainic acid] | 0.00301
46 | CC(=O)O[C@H]1C[C@@H](OC(C)=O)C(C)(C)C2C[C@@H](OC(C)=O)[C@]3(C)C(CC[C@@]4(C)[C@H](c5ccoc5)C(=O)[C@H]5O[C@]543)[C@]21C (some centres not stated) [khayanthone] | 0.131

An excerpt from above in order of number of heavy atoms, high to low.
Row | Structure (SMILES) | log
19 | N#Cc1nn(-c2c(Cl)cc(C(F)(F)F)cc2Cl)c(N)c1[S+]([O-])C(F)(F)F (configuration not stated) [fipronil] | 0.133
36 | CCCN1C[C@H](CSC)C[C@@H]2c3cccc4[nH]cc(c34)C[C@H]21 [pergolide mesylate] | -0.0596
43 | CN1CCCCC1c1ccc(-c2cccnc2)nc1 (configuration not stated) [anabasamine hydrochloride] | -0.0383

Continuation:

Row | Structure (SMILES) | log
47 | C[C@@H]1CC[C@@]2(OC1)O[C@H]1[C@@H](O)[C@H]3[C@@H]4CC[C@H]5C[C@@H](O[C@@H]6O[C@H](CO)[C@H](O[C@@H]7O[C@H](CO)[C@@H](O)[C@H](O[C@@H]8OC[C@@H](O)[C@H](O)[C@H]8O)[C@H]7O[C@@H]7O[C@H](CO)[C@H](O)[C@H](O[C@@H]8O[C@H](CO)[C@@H](O)[C@H](O)[C@H]8O)[C@H]7O)[C@H](O)[C@H]6O)[C@H](O)C[C@]5(C)[C@H]4CC[C@]3(C)[C@H]1[C@@H]2C [digitonin] | -0.121
48 | Nc1ncn[nH]1 [3-amino-1,2,4-triazole] | 0.0488
49 | COc1ccc(CN2CCNCC2)c(OC)c1OC [trimetazidine dihydrochloride] | -0.361
50 | CC(C)=CCCC1(C)C=Cc2c(O)c3c(c(CC=C(C)C)c2O1)OC12C(CC4CC1C(C)(C)OC2(C/C=C(/C)C(=O)O)C4O)C3=O (configuration not stated) [tetrahydrogambogic acid] | -0.0219
51 | CC[C@H]1CN2CC[C@H]1C[C@@H]2[C@@H](O)c1ccnc2ccc(OC)cc12 [hydroquinidine] | 0.0205
52 | C=C[C@H]1CN2CC[C@H]1C[C@H]2[C@H](OC(=O)OCC)c1ccnc2ccc(OC)cc12 [quinine ethyl carbonate] | -0.256
53 | CC(C)[C@@H]1NC(=O)[C@H](C)OC(=O)[C@@H](C(C)C)NC(=O)[C@@H](C(C)C)OC(=O)[C@H](C(C)C)NC(=O)[C@H](C)OC(=O)[C@@H](C(C)C)NC(=O)[C@@H](C(C)C)OC(=O)[C@H](C(C)C)NC(=O)[C@H](C)OC(=O)[C@@H](C(C)C)NC(=O)[C@@H](C(C)C)OC1=O [valinomycin] | -1.34
54 | CC(=O)Oc1c2c(c(CC=C(C)C)c3c1C(=O)C1=C[C@@H]4CC5C(C)(C)OC(C/C=C(\C)C(=O)O)(C4=O)[C@@]15O3)OC(C)(CCC=C(C)C)C=C2 (some centres not stated) [acetyl isogambogic acid] | -1.48
55 | O=[N+]([O-])O[C@@H]1CO[C@H]2[C@@H]1OC[C@@H]2O [isosorbide mononitrate] | -1.64
56 | CC1=CC(=O)c2c(O)cccc2C1=O [plumbagin] | -1.69
57 | NC(=O)c1ccc(N)nc1 [6-aminonicotinamide] | 0.0146
58 | N[C@@H](Cc1ccc(N(CCCl)CCCl)cc1)C(=O)O [melphalan] | -0.161
59 | CC(C)N(CCC(C(N)=O)(c1ccccc1)c1ccccn1)C(C)C (configuration not stated) [disopyramide phosphate] | -0.169
60 | N=C(N)NN [pimagedine hydrochloride] | -0.231
61 | C[C@H](N)[C@H](O)c1ccc(O)c(O)c1 [levonordefrin] | 0.186
62 | CN1[C@@H]2CC[C@H]1C[C@@H](OC(=O)[C@H](CO)c1ccccc1)C2 [hyoscyamine] | -0.0206
63 | Nc1nc(N)nc(NC2CC2)n1 [cyromazine] | 0.0595
64 | Cc1ccc(-c2nc3ccc(C)cn3c2CC(=O)N(C)C)cc1 [zolpidem] | 0.154
65 | C[C@H]1O[C@H](O[C@H]2[C@H](O)[C@@H](O)[C@@H](O)[C@H](O)[C@@H]2O)[C@@H](N)C[C@@H]1NC(=N)C(=O)O [kasugamycin hydrochloride] | 0.0905
66 | COc1ccc2c(c1)[C@]13CCCC[C@@H]1[C@H](C2)N(C)CC3 [dextromethorphan hydrobromide] | 0.054
67 | CC1=NCCc2c1[nH]c1cc(O)ccc21 [harmalol hydrochloride] | 0.0787
